Measurements published in PMC7958265.
Results are given in words; binding and its absence hold for the method and conditions named. Some results given as binding are weak or reduced against the parent protein; the word gives no strength.

Chains of the proteins cited; added tags and fusions are not shown. Lines headed by an entry give the natural chain unless they say otherwise; changes in a name come on top.
UniProt P09429: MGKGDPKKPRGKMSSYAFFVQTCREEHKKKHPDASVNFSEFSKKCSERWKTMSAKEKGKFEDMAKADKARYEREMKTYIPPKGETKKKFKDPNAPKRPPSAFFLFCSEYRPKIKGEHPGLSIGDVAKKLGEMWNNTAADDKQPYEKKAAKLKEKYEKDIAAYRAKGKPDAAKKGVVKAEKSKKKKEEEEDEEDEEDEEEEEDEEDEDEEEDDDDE
UniProt P02763: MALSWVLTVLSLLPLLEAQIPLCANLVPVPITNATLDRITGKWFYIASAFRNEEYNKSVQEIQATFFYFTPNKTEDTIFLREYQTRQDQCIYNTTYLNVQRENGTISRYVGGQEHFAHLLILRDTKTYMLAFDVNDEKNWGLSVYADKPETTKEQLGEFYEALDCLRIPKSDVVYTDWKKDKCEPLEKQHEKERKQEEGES

Biological target: HMGB1 recombinant protein (High mobility group box 1) (UniProt P09429)
Assay: ELISA; HMGB1 (500 ng to 1 µg) immobilised on the plate, α1-acid glycoprotein 1 µg/well in solution, streptavidin-HRP; 20 mM Hepes, 150 mM NaCl, 500 µM ZnCl2; pH 7.5, and a pH series from 7.1 to 7.8; RT; both purified

## human α1-acid glycoprotein (from UniProt P02763 19-201)
  binding: binds
